{"source": "paper PMC7862700", "note": "This is a selection; strong and weak results do not stand in their true shares. At the low end of the ranking the order means little."}
{"target": "SPI1 (UniProt P17947)", "assay": "DAPPL (digital affinity profiling via proximity ligation, sequencing)", "details": "10 mM Tris-HCl pH 7.5, 50 mM NaCl, 1 mM DTT, 4% glycerol, room temperature, 30 min; GST-TFs on glutathione beads, 16-mer random dsDNA library, 0.1% …; high values mean tight binding; double strand, one strand shown; scale: fold enrichment (6-mer frequency, TF over GST control)"}
{"sequence": "AGGGTT", "binding signal": 0.988}
{"sequence": "AGTTAC", "binding signal": 0.996}
{"sequence": "CTACAG", "binding signal": 0.962}
{"sequence": "AATACG", "binding signal": 1.32}
{"sequence": "CGCAAT", "binding signal": 0.969}
{"sequence": "TCTTTC", "binding signal": 1.51}
{"sequence": "ATTCTC", "binding signal": 1.27}
{"sequence": "CCAGCA", "binding signal": 0.924}
{"sequence": "GCAAAG", "binding signal": 0.921}
{"sequence": "CTCGGG", "binding signal": 0.914}
{"sequence": "AATCAC", "binding signal": 1.12}
{"sequence": "GACATT", "binding signal": 1.13}
{"sequence": "ATAGTC", "binding signal": 0.907}
{"sequence": "CCCATA", "binding signal": 1.18}
{"sequence": "TCTATT", "binding signal": 1.28}
{"sequence": "GCTAGA", "binding signal": 1}
{"sequence": "ACACCG", "binding signal": 0.978}
{"sequence": "AACCGA", "binding signal": 0.989}
{"sequence": "GATCAA", "binding signal": 0.997}
{"sequence": "TCGAGT", "binding signal": 0.947}
{"sequence": "AACGAT", "binding signal": 1.17}
{"sequence": "CGACTG", "binding signal": 1.04}
{"sequence": "CAATGT", "binding signal": 0.991}
{"sequence": "ACTTGA", "binding signal": 0.981}
{"sequence": "AGTTTA", "binding signal": 1.01}
{"sequence": "CACCGA", "binding signal": 0.987}
{"sequence": "AAGTGC", "binding signal": 1.67}
{"sequence": "ATCCTT", "binding signal": 1.7}
{"sequence": "CGAAGG", "binding signal": 0.894}
{"sequence": "GCCGAA", "binding signal": 0.98}
{"sequence": "ATCACG", "binding signal": 0.991}
{"sequence": "GATCAT", "binding signal": 0.929}
{"sequence": "TAGAAT", "binding signal": 1.15}
{"sequence": "TCGCGT", "binding signal": 1}
{"sequence": "AATCCA", "binding signal": 0.992}
{"sequence": "CCCGGT", "binding signal": 0.911}
{"sequence": "ATCGAC", "binding signal": 1.15}
{"sequence": "TGAAGC", "binding signal": 0.92}
{"sequence": "ACACCA", "binding signal": 0.973}
